These are yes or no findings as the source states them, for the method shown. Binding seen in cells or lysates may run through a third protein. These calls come from enrichment with a bait or labelling near it, and not all partners need be listed.
B1: Shrb (Snf7) (protein, UniProt Q8T0Q4 1-226)
chain: MSFFGKMFGGKKEVAPTTGEAIQKLRETENMLIKKQEFLEAKIEDELNIARKNASKNKRVALQALKKKKRLEKQLQQIDGTLSTIEMQREALESANTNTAVLTTMKNAADALKRAHQNMDVDKVHDMMDDIAEQQDVAREISDAISNPVAFGADLDDEDLERELDELEQENFDKEIIGIPEPTPTLPEAPTEDLPEKAKEKKKATTTTAVEDDDDPDMKQLLSWSN
B2: Borr (protein, UniProt Q9VLD6 1-315)
chain: MPRTKIPKNSKRNREVANREEKVRLYELKMDSRLISIDSLETKFLSAVDHQVKTLLGQVQKELANLKMPEVLRLFEELDRFSDFKASDQTQLLASMSMSGSAIEGHAPSATGSRNDEEDSSIGASGGSILAAHTGSLLRSTKAMRTPGPLHSARARRARRSRSACGDLNILHSAKPPSISSSSSSSRNSRSKLRTPMASRAKAFSADRTPLKQKQMRSGSPTTPPMAFLRYPKPGEVALSKYGSPMVAQVMPDKFANVNIPIRNGVLSLRPKKLDADEVESNLLENLDEDTLNQIKTLHENLQMIVNKASQAVFK
B3: Aurora B, Q9VKN7 1-329 (enzyme)
chain: MTLSRAKHANRNHLPHLLAKVPEEHQEPIKNMCLKMMSHDAYGQPYDWSPRDFEMGAHLGRGKFGRVYLARERHSHYLVAMKVMFKEELRKGCVQRQVLREIEIQSRLKHPHILRLLTWFHDESRIYLALEIASEGELFKHLRGAPNHRFDEPRSAKYTYQVANALNYCHLNNVIHRDLKPENILLTSTDDLKLADFGWSAHTPNNKRRTLCGTLDYLPPEMVDGNSYDDSVDQWCLGILCYEFVVGCPPFESNSTESTYSKIRRMEISYPSHLSKGCKELIGGLLRKESKGRITLVDVMTHYWVKAGMAERELQLQKRERGKENTARN

Amino acid sequences for entries named in this document (tags omitted). A change or cut given only in a name is not applied to a line headed by its entry.
UniProt Q9VEM2: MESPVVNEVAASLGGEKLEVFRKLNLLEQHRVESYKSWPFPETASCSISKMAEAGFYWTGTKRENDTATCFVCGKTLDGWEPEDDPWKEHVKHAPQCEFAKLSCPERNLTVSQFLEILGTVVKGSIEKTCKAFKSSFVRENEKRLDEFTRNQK

How the values were obtained:
Assay in all cases: affinity purification with mass spectrometry; PtA-tagged bait stably expressed in Drosophila cells (about 10^9 cells); extraction buffer 50 mM HEPES pH 7.5, 100 mM KAc, 50 mM KCl, 2 mM MgCl2, 2 mM EGTA, 0.1% NP-40, 5 mM DTT, 5% glycerol; rabbit IgG Dynabeads 4 h at 4°C; eluate analysed by LC-MS/MS
PtA::Borr (Drosophila) = target: T1, PtA::Borr (Drosophila) (UniProt Q9VLD6)
T1 sequence: B2 chain

Borr::PtA (Drosophila) = target: T2, Borr::PtA (Drosophila) (UniProt Q9VLD6)
T2 sequence: B2 chain

PtA::Shrb (Drosophila) = target: T3, PtA::Shrb (Drosophila) (UniProt Q8T0Q4)
T3 sequence: B1 chain

[1] = target: T4, Borr::PtA (Drosophila), Q9VLD6; settings: remark: other sources report otherwise
T4 chain: B2 chain

[2] = target: T5, PtA::Borr (Drosophila), Q9VLD6; settings: remark: other sources report otherwise
T5 chain: B2 chain

Molecule | binding (PtA::Borr (Drosophila)) | binding (Borr::PtA (Drosophila)) | binding (PtA::Shrb (Drosophila)) | binding [1] | binding [2]
Deterin (Survivin) (from UniProt Q9VEM2) | binds | binds | binds | – | –
INCENP (Drosophila (endogenous in Dmel S2 cells)) | binds | binds | – | – | –
B1 | binds | binds | – | – | –
B2 | – | – | binds | – | –
B3 | – | – | – | binds | binds
